Assay results from article PMC9354775.
Results are given in words; binding and its absence hold for the method and conditions named. Binding seen in cells or lysates may run through a third protein. These calls come from enrichment with a bait or labelling near it, and not all partners need be listed. Values belong to the molecule of their own block, whether it stands above or below them.

Chains of the proteins cited; added tags and fusions are not shown. Lines headed by an entry give the natural chain unless they say otherwise; changes in a name come on top.
UniProt Q6WWW4: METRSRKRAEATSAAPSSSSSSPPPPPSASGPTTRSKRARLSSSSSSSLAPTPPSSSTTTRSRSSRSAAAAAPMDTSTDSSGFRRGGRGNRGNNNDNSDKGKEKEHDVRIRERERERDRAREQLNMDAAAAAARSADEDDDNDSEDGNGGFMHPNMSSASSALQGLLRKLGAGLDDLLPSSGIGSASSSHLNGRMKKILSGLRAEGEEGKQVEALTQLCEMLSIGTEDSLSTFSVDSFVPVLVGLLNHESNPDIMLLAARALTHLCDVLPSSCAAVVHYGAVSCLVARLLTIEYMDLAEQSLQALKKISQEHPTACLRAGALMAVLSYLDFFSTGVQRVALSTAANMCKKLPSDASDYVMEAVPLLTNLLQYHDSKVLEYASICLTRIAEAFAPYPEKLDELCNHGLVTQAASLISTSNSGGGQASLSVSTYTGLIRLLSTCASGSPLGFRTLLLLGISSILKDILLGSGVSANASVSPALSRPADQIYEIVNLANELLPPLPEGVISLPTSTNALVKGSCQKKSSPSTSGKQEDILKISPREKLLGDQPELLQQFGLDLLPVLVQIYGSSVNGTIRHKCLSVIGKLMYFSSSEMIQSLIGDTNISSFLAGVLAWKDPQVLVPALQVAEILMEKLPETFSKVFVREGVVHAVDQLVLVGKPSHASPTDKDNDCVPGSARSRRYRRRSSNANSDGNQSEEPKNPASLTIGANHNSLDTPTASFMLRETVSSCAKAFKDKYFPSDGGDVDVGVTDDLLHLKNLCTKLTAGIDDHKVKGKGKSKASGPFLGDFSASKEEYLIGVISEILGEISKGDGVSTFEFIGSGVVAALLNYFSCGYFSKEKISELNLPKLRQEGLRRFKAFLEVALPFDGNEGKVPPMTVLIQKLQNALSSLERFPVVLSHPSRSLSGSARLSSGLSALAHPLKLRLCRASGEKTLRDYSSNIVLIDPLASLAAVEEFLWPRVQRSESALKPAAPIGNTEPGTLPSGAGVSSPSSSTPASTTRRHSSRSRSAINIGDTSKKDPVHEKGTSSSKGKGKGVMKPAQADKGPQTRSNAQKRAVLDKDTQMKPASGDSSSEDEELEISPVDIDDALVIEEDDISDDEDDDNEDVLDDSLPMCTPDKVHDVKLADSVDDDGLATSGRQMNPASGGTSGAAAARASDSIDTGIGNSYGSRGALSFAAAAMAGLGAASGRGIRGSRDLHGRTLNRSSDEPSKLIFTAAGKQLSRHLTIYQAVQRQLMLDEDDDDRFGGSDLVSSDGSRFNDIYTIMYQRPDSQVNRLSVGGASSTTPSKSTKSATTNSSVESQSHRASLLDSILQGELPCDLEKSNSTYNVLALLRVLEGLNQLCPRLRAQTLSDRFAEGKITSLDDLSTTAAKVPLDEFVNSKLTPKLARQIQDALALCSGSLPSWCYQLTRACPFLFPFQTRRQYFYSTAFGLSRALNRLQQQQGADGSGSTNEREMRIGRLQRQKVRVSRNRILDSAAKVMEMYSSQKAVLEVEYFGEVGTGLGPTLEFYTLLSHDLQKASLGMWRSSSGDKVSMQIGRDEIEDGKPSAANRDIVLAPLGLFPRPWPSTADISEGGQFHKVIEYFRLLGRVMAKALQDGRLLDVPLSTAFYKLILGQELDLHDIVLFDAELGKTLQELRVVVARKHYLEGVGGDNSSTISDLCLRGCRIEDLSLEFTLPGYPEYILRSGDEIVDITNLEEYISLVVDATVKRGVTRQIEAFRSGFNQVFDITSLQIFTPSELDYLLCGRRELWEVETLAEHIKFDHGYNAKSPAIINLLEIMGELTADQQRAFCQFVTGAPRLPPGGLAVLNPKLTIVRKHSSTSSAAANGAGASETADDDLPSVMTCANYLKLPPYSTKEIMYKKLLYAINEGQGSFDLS
UniProt Q9S9K7: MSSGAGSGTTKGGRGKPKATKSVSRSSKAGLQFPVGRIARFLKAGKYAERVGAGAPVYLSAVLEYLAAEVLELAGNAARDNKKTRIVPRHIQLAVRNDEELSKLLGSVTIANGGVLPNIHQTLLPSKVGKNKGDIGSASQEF
UniProt Q6EVK6: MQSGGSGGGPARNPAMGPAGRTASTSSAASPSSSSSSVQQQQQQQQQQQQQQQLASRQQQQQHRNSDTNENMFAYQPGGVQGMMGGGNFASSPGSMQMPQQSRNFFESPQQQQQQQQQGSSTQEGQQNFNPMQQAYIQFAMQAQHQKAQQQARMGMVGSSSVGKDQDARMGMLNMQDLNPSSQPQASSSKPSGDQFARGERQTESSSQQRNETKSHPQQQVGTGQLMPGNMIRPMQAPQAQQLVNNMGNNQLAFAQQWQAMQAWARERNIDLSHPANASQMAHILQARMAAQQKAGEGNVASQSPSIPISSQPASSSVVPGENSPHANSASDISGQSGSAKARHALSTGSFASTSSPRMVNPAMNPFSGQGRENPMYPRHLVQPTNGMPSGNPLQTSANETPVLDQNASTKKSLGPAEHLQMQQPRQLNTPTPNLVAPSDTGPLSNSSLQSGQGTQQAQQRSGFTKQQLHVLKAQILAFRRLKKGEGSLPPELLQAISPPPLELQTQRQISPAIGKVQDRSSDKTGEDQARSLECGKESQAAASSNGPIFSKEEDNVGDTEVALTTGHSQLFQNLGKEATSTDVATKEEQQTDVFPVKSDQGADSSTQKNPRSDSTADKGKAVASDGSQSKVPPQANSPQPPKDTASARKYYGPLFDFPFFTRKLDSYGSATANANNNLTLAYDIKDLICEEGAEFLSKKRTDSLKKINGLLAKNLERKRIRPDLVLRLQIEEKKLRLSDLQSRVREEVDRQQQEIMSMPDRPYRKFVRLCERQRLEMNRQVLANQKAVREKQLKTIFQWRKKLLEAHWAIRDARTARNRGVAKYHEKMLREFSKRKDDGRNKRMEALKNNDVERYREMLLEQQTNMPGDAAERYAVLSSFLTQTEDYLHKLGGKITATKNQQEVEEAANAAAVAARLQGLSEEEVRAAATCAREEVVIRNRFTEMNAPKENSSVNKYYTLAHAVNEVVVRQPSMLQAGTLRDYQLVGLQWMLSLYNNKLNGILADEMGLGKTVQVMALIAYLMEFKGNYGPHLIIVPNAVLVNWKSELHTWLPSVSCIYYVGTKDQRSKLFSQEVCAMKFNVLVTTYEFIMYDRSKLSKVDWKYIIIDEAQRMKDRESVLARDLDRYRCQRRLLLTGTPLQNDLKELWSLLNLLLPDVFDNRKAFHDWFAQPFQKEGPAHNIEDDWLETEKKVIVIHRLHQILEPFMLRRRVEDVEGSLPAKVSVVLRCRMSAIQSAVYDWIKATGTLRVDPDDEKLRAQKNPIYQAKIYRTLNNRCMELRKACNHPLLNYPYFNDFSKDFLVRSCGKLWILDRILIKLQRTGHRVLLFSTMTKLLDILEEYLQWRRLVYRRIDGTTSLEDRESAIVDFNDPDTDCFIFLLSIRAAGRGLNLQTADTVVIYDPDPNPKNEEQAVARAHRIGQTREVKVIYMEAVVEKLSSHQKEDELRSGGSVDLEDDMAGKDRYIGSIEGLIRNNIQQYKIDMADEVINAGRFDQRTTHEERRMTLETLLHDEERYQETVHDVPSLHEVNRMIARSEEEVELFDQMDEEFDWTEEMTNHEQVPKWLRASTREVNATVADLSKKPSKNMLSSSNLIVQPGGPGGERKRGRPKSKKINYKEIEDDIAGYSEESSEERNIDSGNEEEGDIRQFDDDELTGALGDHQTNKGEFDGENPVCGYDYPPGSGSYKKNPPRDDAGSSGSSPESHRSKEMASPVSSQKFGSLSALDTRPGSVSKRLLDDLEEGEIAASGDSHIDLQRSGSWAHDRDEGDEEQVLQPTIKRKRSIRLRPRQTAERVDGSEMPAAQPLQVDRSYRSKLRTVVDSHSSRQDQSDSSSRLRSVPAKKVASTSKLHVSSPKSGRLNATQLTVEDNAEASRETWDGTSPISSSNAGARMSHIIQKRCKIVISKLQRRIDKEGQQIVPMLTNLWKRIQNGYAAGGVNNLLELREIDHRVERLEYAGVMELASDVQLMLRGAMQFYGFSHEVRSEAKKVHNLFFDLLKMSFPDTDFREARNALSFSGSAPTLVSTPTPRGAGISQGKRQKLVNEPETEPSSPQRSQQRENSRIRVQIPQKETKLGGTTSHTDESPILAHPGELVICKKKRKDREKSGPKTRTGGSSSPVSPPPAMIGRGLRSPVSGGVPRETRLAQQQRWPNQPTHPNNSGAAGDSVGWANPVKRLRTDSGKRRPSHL
UniProt Q42525: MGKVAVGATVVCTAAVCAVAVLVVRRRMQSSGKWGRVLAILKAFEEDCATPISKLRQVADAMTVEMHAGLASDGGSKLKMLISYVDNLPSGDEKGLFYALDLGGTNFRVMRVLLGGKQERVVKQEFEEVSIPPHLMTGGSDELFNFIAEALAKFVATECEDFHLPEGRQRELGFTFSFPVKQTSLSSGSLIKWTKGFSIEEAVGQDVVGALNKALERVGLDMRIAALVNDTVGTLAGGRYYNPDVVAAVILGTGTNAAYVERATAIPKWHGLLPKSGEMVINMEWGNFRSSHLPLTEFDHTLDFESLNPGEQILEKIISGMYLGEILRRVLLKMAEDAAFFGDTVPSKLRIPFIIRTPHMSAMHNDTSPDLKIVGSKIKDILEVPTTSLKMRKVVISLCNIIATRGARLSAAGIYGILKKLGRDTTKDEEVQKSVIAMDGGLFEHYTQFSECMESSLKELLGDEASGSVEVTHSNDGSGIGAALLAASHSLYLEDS
UniProt Q9M1X3: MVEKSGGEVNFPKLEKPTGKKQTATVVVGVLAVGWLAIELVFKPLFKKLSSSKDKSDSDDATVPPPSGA

Target: UPL3-GFP (A. thaliana) (UniProt Q6WWW4)
Assay: affinity purification with mass spectrometry; GFP nanotrap (GBP beads) on lysate of rosette leaves of 6-wk-old ACTIN3:UPL3-GFP plants; IP buffer 50 mM Tris-HCl pH 7.4, 150 mM NaCl, 1 mM EDTA, 1% Nonidet P-40, 10% glycerol; 4°C, 2 h; hits of ACTIN3:GFP control plants subtracted

Molecule: H2AXb (from UniProt Q9S9K7 1-142)
binding: binds

B1: SWIS3C (protein, UniProt Q9XI07 1-807)
chain: MPASEDRRGKWKRKKRGGLSAARKPKQEEEDMEEEDEENNNNNNEEMDDVENADELQQNGGATPDPGLGIGEVVEDSGSRISDFPAVVKRVVIRPHASVMAVVAAERAGLIGETRGQGSLPALENISFGQLQALSTVPADSLDLERSDGSSSAYVISPPPIMDGEGVVKRFGDLVHVLPMHSDWFAPNTVDRLERQVVPQFFSGKSPNHTPESYMEFRNAIVSKYVENPEKTLTISDCQGLVDGVDIEDFARVFRFLDHWGIINYCATAQSHPGPLRDVSDVREDTNGEVNVPSAALTSIDSLIKFDKPNCRHKGGEVYSSLPSLDGDSPDLDIRIREHLCDSHCNHCSRPLPTVYFQSQKKGDILLCCDCFHHGRFVVGHSCLDFVRVDPMKFYGDQDGDNWTDQETLLLLEAVELYNENWVQIADHVGSKSKAQCILHFLRLPVEDGLLDNVEVSGVTNTENPTNGYDHKGTDSNGDLPGYSEQGSDTEIKLPFVKSPNPVMALVAFLASAVGPRVAASCAHESLSVLSEDDRMKSEGMQGKEASLLDGENQQQDGAHKTSSQNGAEAQTPLPQDKVMAAFRAGLSAAATKAKLFADHEEREIQRLSANIVNHQLKRMELKLKQFAEIETLLMKECEQVEKTRQRFSAERARMLSARFGSPGGISPQTNNLQGMSLSTGGNNINSLMHQQHQQQQASATSQPSIIPGFSNNPQVQAQMHFMARQQQQQQQQQQQQQQAFSFGPRLPLNAIQTNAGSTASPNVMFGNNQLNNPAAAGAASINQPSFSHPMVRSSTGSGSGSGLGLN
binding: binds

B2: ERD14 (protein, UniProt P42763 1-185)
chain: MAEEIKNVPEQEVPKVATEESSAEVTDRGLFDFLGKKKDETKPEETPIASEFEQKVHISEPEPEVKHESLLEKLHRSDSSSSSSSEEEGSDGEKRKKKKEKKKPTTEVEVKEEEKKGFMEKLKEKLPGHKKPEDGSAVAAAPVVVPPPVEEAHPVEKKGILEKIKEKLPGYHPKTTVEEEKKDKE
binding: binds

B3: ubiquitin hydrolase 12 (UBP12) (enzyme, UniProt Q9FPT1 1-1116)
chain: MTMMTPPPVDQPEDEEMLVPNSDLVDGPAQPMEVTQPETAASTVENQPAEDPPTLKFTWTIPNFSRQNTRKHYSDVFVVGGYKWRILIFPKGNNVDHLSMYLDVSDAASLPYGWSRYAQFSLAVVNQIHTRYTVRKETQHQFNARESDWGFTSFMPLSELYDPSRGYLVNDTVLVEAEVAVRKVLDYWSYDSKKETGFVGLKNQGATCYMNSLLQTLYHIPYFRKAVYHMPTTENDAPTASIPLALQSLFYKLQYNDTSVATKELTKSFGWDTYDSFMQHDVQELNRVLCEKLEDKMKGTVVEGTIQQLFEGHHMNYIECINVDFKSTRKESFYDLQLDVKGCKDVYASFDKYVEVERLEGDNKYHAEGHGLQDAKKGVLFIDFPPVLQLQLKRFEYDFMRDTMVKINDRYEFPLELDLDREDGKYLSPDADRSVRNLYTLHSVLVHSGGVHGGHYYAFIRPTLSDQWYKFDDERVTKEDLKRALEEQYGGEEELPQTNPGFNNNPPFKFTKYSNAYMLVYIRESDKDKIICNVDEKDIAEHLRVRLKKEQEEKEDKRRYKAQAHLYTIIKVARDEDLKEQIGKDIYFDLVDHDKVRSFRIQKQTPFQQFKEEVAKEFGVPVQLQRFWIWAKRQNHTYRPNRPLTPQEELQPVGQIREASNKANTAELKLFLEVEHLDLRPIPPPEKSKEDILLFFKLYDPEKAVLSYAGRLMVKSSSKPMDITGKLNEMVGFAPDEEIELFEEIKFEPCVMCEHLDKKTSFRLCQIEDGDIICFQKPLVNKEIECLYPAVPSFLEYVQNRQLVRFRALEKPKEDEFVLELSKQHTYDDVVEKVAEKLGLDDPSKLRLTSHNCYSQQPKPQPIKYRGVDHLSDMLVHYNQTSDILYYEVLDIPLPELQGLKTLKVAFHHATKEEVVIHNIRLPKQSTVGDVINELKTKVELSHPDAELRLLEVFYHKIYKIFPSTERIENINDQYWTLRAEEIPEEEKNIGPNDRLILVYHFAKETGQNQQVQNFGEPFFLVIHEGETLEEIKNRIQKKLHVSDEDFAKWKFAFMSMGRPEYLQDTDVVYNRFQRRDVYGAFEQYLGLEHADTTPKRAYAANQNRHAYEKPVKIYN
binding: binds

Other lines, results leading:

binding: binds
Molecule: SWI-SNF chromatin-remodeling ATPase BRAHMA (BRM) (from UniProt Q6EVK6 1-2193)

binding: binds
Molecule: hexokinase 1 (HXK1) (from UniProt Q42525 1-496) (enzyme)

binding: binds
Molecule: AT3G63160 (from UniProt Q9M1X3)
